These are yes or no findings as the source states them, for the method shown. Binding seen in cells or lysates may run through a third protein. A yes stands for co-enrichment or nearness to the bait. Other partners may have been found. For some assays here: A no says only that the protein was not detected with the bait.
Experiments:
[1] = target: FlagBirA*-RAB10 T23N (dominant negative) (UniProt P61026); test: proximity labelling; BioID: FlagBirA*-RAB10 bait stably expressed in Flp-In T-REx 293 cells, tetracycline 1 ug/ml, biotin 50 uM for 20 h; streptavidin-sepharose purification and mass spectrometry; high confidence interactors BFDR <= 0.01 (SAINT) against FlagBirA* alone
[2] = target: FlagBirA*-RAB10 Q68L (constitutively active) (UniProt P61026); test: as above

Amino acid sequences for entries named in this document (tags omitted). A change or cut given only in a name is not applied to a line headed by its entry.
UniProt P61026: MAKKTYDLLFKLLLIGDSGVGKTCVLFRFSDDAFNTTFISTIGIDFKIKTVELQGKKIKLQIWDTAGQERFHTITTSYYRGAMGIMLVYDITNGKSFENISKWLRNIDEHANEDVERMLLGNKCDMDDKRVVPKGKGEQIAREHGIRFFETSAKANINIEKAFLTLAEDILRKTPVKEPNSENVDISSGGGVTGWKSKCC
UniProt Q8NDI1: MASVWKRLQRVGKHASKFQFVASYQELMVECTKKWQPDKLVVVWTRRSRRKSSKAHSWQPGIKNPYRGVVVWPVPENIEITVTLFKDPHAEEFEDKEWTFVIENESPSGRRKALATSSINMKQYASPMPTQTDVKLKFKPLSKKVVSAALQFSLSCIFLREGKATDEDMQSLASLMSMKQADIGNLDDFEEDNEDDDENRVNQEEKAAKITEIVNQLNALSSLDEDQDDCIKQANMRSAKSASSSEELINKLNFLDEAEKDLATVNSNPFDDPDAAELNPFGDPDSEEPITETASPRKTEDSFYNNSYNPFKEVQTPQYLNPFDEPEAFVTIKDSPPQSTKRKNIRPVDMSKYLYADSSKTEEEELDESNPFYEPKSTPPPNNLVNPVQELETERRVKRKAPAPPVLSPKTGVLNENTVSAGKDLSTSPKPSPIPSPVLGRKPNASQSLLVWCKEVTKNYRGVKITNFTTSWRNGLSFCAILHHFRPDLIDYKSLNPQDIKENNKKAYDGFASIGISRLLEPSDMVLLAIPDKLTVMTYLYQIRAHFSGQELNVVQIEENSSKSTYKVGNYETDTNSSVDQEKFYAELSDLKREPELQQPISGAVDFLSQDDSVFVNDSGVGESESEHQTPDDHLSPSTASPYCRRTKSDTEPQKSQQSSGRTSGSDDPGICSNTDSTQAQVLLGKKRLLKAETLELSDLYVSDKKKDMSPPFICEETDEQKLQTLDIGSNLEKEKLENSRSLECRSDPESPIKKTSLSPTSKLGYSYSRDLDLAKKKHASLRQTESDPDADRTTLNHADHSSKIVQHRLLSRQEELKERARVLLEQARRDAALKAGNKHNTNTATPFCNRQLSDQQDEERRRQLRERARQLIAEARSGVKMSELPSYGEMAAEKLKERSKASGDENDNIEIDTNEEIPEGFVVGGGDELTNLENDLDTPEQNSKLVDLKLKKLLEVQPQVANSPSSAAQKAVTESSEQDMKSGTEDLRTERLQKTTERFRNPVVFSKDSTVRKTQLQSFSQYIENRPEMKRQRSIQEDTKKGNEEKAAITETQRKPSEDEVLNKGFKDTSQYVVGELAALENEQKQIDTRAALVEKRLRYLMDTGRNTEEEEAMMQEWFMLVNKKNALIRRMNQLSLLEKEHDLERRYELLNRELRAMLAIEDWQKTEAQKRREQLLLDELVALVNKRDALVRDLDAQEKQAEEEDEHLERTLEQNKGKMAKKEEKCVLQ

binding [1]: no binding
binding [2]: binds
Substance: EHBP1 (from UniProt Q8NDI1 1-1231)

Reference: paper PMC11006906
